Assay results published in PMC10996840 (RSC Advances, 2024).

System: MCF-7 cells
Test: MTT cytotoxicity assay against MCF-7 cells
Format: cell-based
Settings: Homo sapiens, MCF7, read-out: IC50 ± SD MCF-7

CN[C@@H]1C[C@H]2O[C@@](C)([C@@H]1OC)n1c3ccccc3c3c4c(c5c6ccccc6n2c5c31)C(=O)NC4 [Staurosporine, reference compound]
IC50: 6.76 ± 0.51 µM
